No constants are given. Whether binding was seen depends on the method and setting. Binding seen in cells or lysates may run through a third protein. A yes stands for co-enrichment or nearness to the bait. Other partners may have been found.

First the molecules themselves.
B1: GRF3 (14-3-3 protein), endogenous (protein, UniProt P42644 1-255)
chain: MSTREENVYMAKLAEQAERYEEMVEFMEKVAKTVDVEELSVEERNLLSVAYKNVIGARRASWRIISSIEQKEESKGNEDHVAIIKDYRGKIESELSKICDGILNVLEAHLIPSASPAESKVFYLKMKGDYHRYLAEFKAGAERKEAAESTLVAYKSASDIATAELAPTHPIRLGLALNFSVFYYEILNSPDRACSLAKQAFDDAIAELDTLGEESYKDSTLIMQLLRDNLTLWTSDMTDEAGDEIKEASKPDGAE
B2: GRF4 (General Regulatory Factor 4, 14-3-3 protein), endogenous (protein, UniProt P46077 1-267)
chain: MAAPPASSSAREEFVYLAKLAEQAERYEEMVEFMEKVAEAVDKDELTVEERNLLSVAYKNVIGARRASWRIISSIEQKEESRGNDDHVTTIRDYRSKIESELSKICDGILKLLDTRLVPASANGDSKVFYLKMKGDYHRYLAEFKTGQERKDAAEHTLTAYKAAQDIANAELAPTHPIRLGLALNFSVFYYEILNSPDRACNLAKQAFDEAIAELDTLGEESYKDSTLIMQLLRDNLTLWTSDMQDESPEEIKEAAAPKPAEEQKEI
B3: PI-PLC2, endogenous (protein, UniProt Q39033 1-581)
chain: MSKQTYKVCFCFRRRFRYTASEAPREIKTIFEKYSENGVMTVDHLHRFLIDVQKQDKATREDAQSIINSASSLLHRNGLHLDAFFKYLFGDNNPPLALHKVHHDMDAPISHYFIFTGHNSYLTGNQLSSDCSEVPIIDALKKGVRVIELDIWPNSNKDDIDVLHGMTLTTPVGLIKCLKAIRAHAFDVSDYPVVVTLEDHLTPDLQSKVAEMVTEIFGEILFTPPVGESLKEFPSPNSLKRRIIISTKPPKEYKEGKDVEVVQKGKDLGDEEVWGREVPSFIQRNKSEAKDDLDGNDDDDDDDDEDKSKINAPPQYKHLIAIHAGKPKGGITECLKVDPDKVRRLSLSEEQLEKAAEKYAKQIVRFTQHNLLRIYPKGTRVTSSNYNPLVGWSHGAQMVAFNMQGYGRSLWLMQGMFRANGGCGYIKKPDLLLKSGSDSDIFDPKATLPVKTTLRVTVYMGEGWYFDFRHTHFDQYSPPDFYTRVGIAGVPGDTVMKKTKTLEDNWIPAWDEVFEFPLTVPELALLRLEVHEYDMSEKDDFGGQTCLPVWELSEGIRAFPLHSRKGEKYKSVKLLVKVEFV

The assay has as its target IPCK1-flag (Arabidopsis thaliana). The assay is described as follows: affinity purification with mass spectrometry; IP-MS: total protein (RIPA buffer) of 10-day-old 35S::IPCK1-flag/WT seedlings, flag magnetic beads 2 h on ice, washed with PBS.
For B1, the binding result is “binds”. The value for B2 was “binds”; that for B3 was “binds”.

The record behind these values is paper PMC11178898, “A clade of receptor-like cytoplasmic kinases and 14-3-3 proteins coordinate inositol hexaphosphate accumulation” (Nature Communications, 2024).
